PubChem BioAssay AID504793, Drosophila RNAi Screening Center, 2011
The deposit covers about 23,000 reagents; shown is an unselected part of those with a known target gene and a result. Of all reagents, 62 (0.27%) got an active call. 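Calls come from follow-up tests whose scores are not deposited, so confirmed genes may have low counts here; counts are not normalised per plate.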 The raw values are shown without normalisation. A plus sign joins genes that one reagent is predicted to hit. Reagent sequences are not shown.

Test: 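Knock-downs allowing continued mitosis even though DNA is damaged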 (primary screen)
Cells: Drosophila S2R+ cells
Knock-down reagent: long dsRNA against Drosophila genes, about 0.25 µg dsRNA per well
Duration: 4 days of dsRNA, then 4 hours of drug before read-out
Challenge: doxorubicin 0.5 µM for 4 hours to cause double-strand breaks, in cells also given a low, harmless dose of dsRNA against nbs to sensitise the assay
Measured: 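Per-well count of mitotic cells stained for phospho-histone H3 after doxorubicin exposure, used as mitotic index; counts are raw and not normalised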
Reading the numbers: mitotic cells: higher = more cells in mitosis, weaker G2 arrest
Call rule: 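Genes are called active only when high mitotic counts were reproduced with independent dsRNAs and mitosis was checked for delay without damage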
Calls: active = confirmed in follow-up tests; inactive = not confirmed

| Target gene | amplicon | mitotic cells, replicate 1 | mitotic cells, replicate 2 | activity call |
| --- | --- | --- | --- | --- |
| CG33269 | DRSC10585 | 12 | – | inactive |
| CG11768 | DRSC23219 | 12 | – | inactive |
| CG11768 | DRSC29630 | 8 | – | inactive |
| CG14340 | DRSC00370 | 9 | – | inactive |
| nompB | DRSC03701 | 11 | – | inactive |
| nompB | DRSC03731 | 8 | – | inactive |
| CG9855 | DRSC12344 | 9 | 12 | inactive |
| CG9855 | DRSC25547 | 7 | – | inactive |
| eEF1alpha2 | DRSC14079 | 4 | – | inactive |
| eEF1alpha2 | DRSC16658 | 12 | – | inactive |
| MED16 | DRSC04506 | 4 | – | inactive |
| MED16 | DRSC26633 | 6 | – | inactive |
| CG30375 | DRSC06834 | 7 | – | inactive |
| CG2162 | DRSC08557 | 5 | – | inactive |
| CG2162 | DRSC25030 | 4 | – | inactive |
| CG33221 (retired record) | DRSC21201 | 5 | 9 | inactive |
| AQP | DRSC06122 | 6 | – | inactive |
| D2hgdh | DRSC18577 | 4 | – | inactive |
| D2hgdh | DRSC25824 | 3 | – | inactive |
| shf | DRSC18283 | 11 | – | inactive |
| shf | DRSC24224 | 5 | – | inactive |
| Nt5a | DRSC08561 | 9 | – | inactive |
| CG32259 | DRSC08082 | 4 | – | inactive |
| CG2887 | DRSC18235 | 12 | – | inactive |
| CG2887 | DRSC24167 | 7 | – | inactive |
| CG14969 | DRSC08428 | 4 | – | inactive |
| CG31549 | DRSC21688 | 12 | – | inactive |
| DNAlig4 | DRSC19436 | 9 | – | inactive |
| CG7083 | DRSC11136 | 4 | – | inactive |
| CG7083 | DRSC24327 | 5 | – | inactive |

The list goes on, starting with the last 4 of the part before.
| Target gene | amplicon | mitotic cells, replicate 1 | mitotic cells, replicate 2 | activity call |
| --- | --- | --- | --- | --- |
| CG31549 | DRSC21688 | 12 | – | inactive |
| DNAlig4 | DRSC19436 | 9 | – | inactive |
| CG7083 | DRSC11136 | 4 | – | inactive |
| CG7083 | DRSC24327 | 5 | – | inactive |
| CG3650 | DRSC04401 | 4 | – | inactive |
| CG3650 | DRSC28976 | 1 | – | inactive |
| CG5080 | DRSC00677 | 8 | – | inactive |
| CG8490 | DRSC07194 | 5 | – | inactive |
| CG8490 | DRSC27075 | 7 | – | inactive |
| Hmu | DRSC16705 | 15 | – | inactive |
| Hmu | DRSC28454 | 6 | – | inactive |
| Trpml + CG42638 | DRSC11032 | 11 | – | inactive |
| CG1703 | DRSC19764 | 5 | – | inactive |
| mRpS24 | DRSC28886 | 4 | – | inactive |
| CG17982 | DRSC18143 | 10 | – | inactive |
| CG31798 | DRSC01702 | 3 | – | inactive |
| CG31798 | DRSC27963 | 7 | – | inactive |
| Srg2 + CG42826 | DRSC10681 | 10 | – | inactive |
| Srg2 + CG42826 | DRSC10682 | 6 | – | inactive |
| Srg2 + CG42826 | DRSC24667 | 4 | – | inactive |
